Source: publication PMC5522188
Like-named read-outs stand apart in the source and are kept apart here. Results are given in words; binding and its absence hold for the method and conditions named. In cells and extracts the contact can be indirect. Some results given as binding are weak or reduced against the parent protein; the word gives no strength.

Sequences of proteins named here, by UniProt entry; tags and fusion partners are left off. A change or cut given only in a name is not applied to a line headed by its entry. A line that says so, or that is headed by a name, gives the form on record, which may keep a tag or linker.
CENP-A K49A R52A K53A K56A (4A) (P49450, form named): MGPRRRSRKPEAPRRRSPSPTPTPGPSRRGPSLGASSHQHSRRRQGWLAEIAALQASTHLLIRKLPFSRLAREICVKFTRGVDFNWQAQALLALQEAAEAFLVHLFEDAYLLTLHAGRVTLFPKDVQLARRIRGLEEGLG
CENP-A R42A R43A R44A (3A) (P49450, form named): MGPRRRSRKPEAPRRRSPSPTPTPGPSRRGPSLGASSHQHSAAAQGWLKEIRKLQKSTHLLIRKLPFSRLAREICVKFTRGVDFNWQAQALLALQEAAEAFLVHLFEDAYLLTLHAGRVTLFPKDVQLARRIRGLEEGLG
CENP-A Del60-64 (L60-K64 deleted) (P49450, form named): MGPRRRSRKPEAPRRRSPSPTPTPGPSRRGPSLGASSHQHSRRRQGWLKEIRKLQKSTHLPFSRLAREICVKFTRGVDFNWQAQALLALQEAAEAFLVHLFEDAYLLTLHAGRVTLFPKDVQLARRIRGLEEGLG

Columns and labels:
Test in all cases: co-IP; cell lysates made by sonication in 50 mM Tris pH 7.4, 150 mM NaCl, 1 mM EDTA, 1% NP-40 alternative, 15% glycerol; incubated with antibody and Protein A/G beads for 4 hours, washed three times with lysis buffer, western blotting; precipitating antibody and cell line not stated
[1] = target: CENP-A K49A R52A K53A K56A (4A) (human) (UniProt P49450)
[2] = target: CENP-A R42A R43A R44A (3A) (human) (UniProt P49450)
[3] = target: CENP-A Del60-64 (L60-K64 deleted) (human) (UniProt P49450)
[4] = target: Centromere protein A (CENP-A), wild type (human) (UniProt P49450)
[5] = target: CENP-A Del60-64 (L60-K64 deleted) (human) (UniProt P49450); remark: listed apart in the source
[6] = target: Centromere protein A (CENP-A), wild type (human) (UniProt P49450); remark: listed apart in the source

Measured: binding

Importin-β (from UniProt Q14974 1-876)
binds: [1] | [2] | [3] | [4]

B1: CENP-B (protein, UniProt P07199 1-599)
chain: MGPKRRQLTFREKSRIIQEVEENPDLRKGEIARRFNIPPSTLSTILKNKRAILASERKYGVASTCRKTNKLSPYDKLEGLLIAWFQQIRAAGLPVKGIILKEKALRIAEELGMDDFTASNGWLDRFRRRHGVVSCSGVARARARNAAPRTPAAPASPAAVPSEGSGGSTTGWRAREEQPPSVAEGYASQDVFSATETSLWYDFLPDQAAGLCGGDGRPRQATQRLSVLLCANADGSEKLPPLVAGKSAKPRAGQAGLPCDYTANSKGGVTTQALAKYLKALDTRMAAESRRVLLLAGRLAAQSLDTSGLRHVQLAFFPPGTVHPLERGVVQQVKGHYRQAMLLKAMAALEGQDPSGLQLGLTEALHFVAAAWQAVEPSDIAACFREAGFGGGPNATITTSLKSEGEEEEEEEEEEEEEEGEGEEEEEEGEEEEEEGGEGEELGEEEEVEEEGDVDSDEEEEEDEESSSEGLEAEDWAQGVVEAGGSFGAYGAQEEAQCPTLHFLEGGEDSDSDSEEEDDEEEDDEDEDDDDDEEDGDEVPVPSFGEAMAYFAMVKRYLTSFPIDDRVQSHILHLEHDLVHVTRKNHARQAGVRGLGHQS
binds: [5] | [6]
